According to PMC8147293, “Library of Selenocyanate and Diselenide Derivatives as In Vivo Antichagasic Compounds Targeting Trypanosoma cruzi Mitochondrion” (Pharmaceuticals, 2021):

How the values were obtained:
[1] = test system: epimastigotes of T. cruzi Arequipa strain; assay: Screening against extracellular epimastigotes (resazurin); assay type: cell-based, Trypanosoma cruzi; conditions: for SI / number of times that compounds exceed the reference drug SI (in brackets): Table S1; for SI: IC50 Vero cells / IC50 epimastigote; for number of times that compounds exceed the reference drug SI (in brackets): epimastigote; for number of times that compounds exceed the reference drug SI (in brackets) / number of times that compounds exceed the reference drug SI, Epimast. (in brackets): versus BZN
Protocol: Trypanocidal activity against epimastigotes of T. cruzi Arequipa strain (MHOM/Pe/2011/Arequipa, discrete typing unit V) was tested as previously described. In short, 5 × 10^5 epimastigotes·mL^−1 were treated by adding the tested compounds at a concentration range from 100 to 0.2 µM in 96-well microplates (200 µL·well^−1) for 48 h. Subsequently, resazurin sodium salt (Sigma-Aldrich) was added to be incubated for further 24 h. Finally, the absorbance was measured, and the trypanocidal activity was expressed as the IC50 (inhibitory concentration 50) using GraphPad Prism 6 software. Each compound concentration was tested in triplicate in three independent experiments.

[2] = test system: Trypanosoma cruzi intracellular amastigotes; assay: Screening against intracellular amastigotes in Vero cells (Giemsa counting); assay type: cell-based; conditions: versus BZN
Protocol: Trypanocidal activity against amastigotes was determined according to the literature reported previously. […]. […] Each compound concentration was tested in triplicate in four separate determinations.

[3] = test system: Trypanosoma cruzi bloodstream trypomastigotes (BTs); assay: Screening against bloodstream trypomastigotes (resazurin); assay type: cell-based; conditions: versus BZN
Protocol: 2 × 10^6 Bloodstream trypomastigotes (BTs), obtained by cardiac puncture from infected BALB/c mice as previously described, were treated by adding the tested compounds at a concentration range from 50 to 0.1 µM in 96-well microplates (200 µL·well^−1) at 37 °C. After 24 h of treatment, resazurin sodium salt (Sigma-Aldrich) was added to be incubated for further 4 h. Finally, trypanocidal activity was determined following the same procedure as described to assess the trypanocidal activity in the epimastigotes. Each compound concentration was tested in triplicate in three independent experiments.

Row | SMILES | SI [1] | number of times that compounds exceed the reference drug SI (in brackets) [1] | number of times that compounds exceed the reference drug SI, Epimast. (in brackets) [1] | number of times that compounds exceed the reference drug SI, Amast. (in brackets) [2] | number of times that compounds exceed the reference drug SI, Trypomast. (in brackets) [3]
1 | N#C[Se]Cc1ccc(Br)cc1 [compound 1] | 2 | 0 | – | – | –
2 | Brc1ccc(C[Se][Se]Cc2ccc(Br)cc2)cc1 [compound 2] | 1 | 0 | – | – | –
3 | N#C[Se]Cc1ccccc1 [compound 3] | 1 | 0 | – | – | –
4 | c1ccc(C[Se][Se]Cc2ccccc2)cc1 [compound 4] | 1 | 0 | – | – | –
5 | N#C[Se]Cc1ccc([N+](=O)[O-])cc1 [compound 5] | 1 | 0 | – | – | –
6 | O=[N+]([O-])c1ccc(C[Se][Se]Cc2ccc([N+](=O)[O-])cc2)cc1 [compound 6] | 2 | 0 | – | – | –
7 | N#C[Se]Cc1ccc(C(F)(F)F)cc1 [compound 7] | 1 | 0 | – | – | –
8 | FC(F)(F)c1ccc(C[Se][Se]Cc2ccc(C(F)(F)F)cc2)cc1 [compound 8] | – | – | 5 | 6 | 4
9 | CSc1ccc(C[Se]C#N)cc1 [compound 9] | 6 | 1 | – | – | –
10 | CSc1ccc(C[Se][Se]Cc2ccc(SC)cc2)cc1 [compound 10] | – | – | 15 | 11 | 11
11 | Cc1ccc(C[Se]C#N)cc1 [compound 11] | – | – | 4 | 2 | 2
12 | Cc1ccc(C[Se][Se]Cc2ccc(C)cc2)cc1 [compound 12] | 0 | 0 | – | – | –
13 | N#C[Se]Cc1ccc(C#N)cc1 [compound 13] | 7 | 1 | – | – | –
14 | N#Cc1ccc(C[Se][Se]Cc2ccc(C#N)cc2)cc1 [compound 14] | 0 | 0 | – | – | –
15 | N#C[Se]Cc1ccccc1[N+](=O)[O-] [compound 15] | – | – | 4 | 4 | 2
16 | O=[N+]([O-])c1ccccc1C[Se][Se]Cc1ccccc1[N+](=O)[O-] [compound 16] | 1 | 0 | – | – | –
17 | N#C[Se]Cc1cccc([N+](=O)[O-])c1 [compound 17] | 2 | 0 | – | – | –
18 | O=[N+]([O-])c1cccc(C[Se][Se]Cc2cccc([N+](=O)[O-])c2)c1 [compound 18] | 5 | 1 | – | – | –
19 | N#C[Se]Cc1ccccc1C#N [compound 19] | 0 | 0 | – | – | –
20 | N#Cc1ccccc1C[Se][Se]Cc1ccccc1C#N [compound 20] | – | – | 3 | 2 | 3
21 | N#C[Se]Cc1cccc(C#N)c1 [compound 21] | – | – | 4 | 3 | 3
22 | N#Cc1cccc(C[Se][Se]Cc2cccc(C#N)c2)c1 [compound 22] | 0 | 0 | – | – | –

Row | SMILES | SI [1] | number of times that compounds exceed the reference drug SI (in brackets) [1] | number of times that compounds exceed the reference drug SI, Epimast. (in brackets) [1] | number of times that compounds exceed the reference drug SI, Amast. (in brackets) [2] | number of times that compounds exceed the reference drug SI, Trypomast. (in brackets) [3]
23 | N#C[Se]Cc1cc2c(cc1Br)OCO2 [compound 23] | 3 | 1 | – | – | –
24 | Brc1cc2c(cc1C[Se][Se]Cc1cc3c(cc1Br)OCO3)OCO2 [compound 24] | 1 | 0 | – | – | –
25 | N#C[Se]Cc1cccc2cccnc12 [compound 25] | 1 | 0 | – | – | –
26 | c1cnc2c(C[Se][Se]Cc3cccc4cccnc34)cccc2c1 [compound 26] | 3 | 1 | – | – | –
27 | N#C[Se]Cc1ccc2ccccc2n1 [compound 27] | 0 | 0 | – | – | –
28 | N#C[Se]Cc1c2ccccc2cc2ccccc12 [compound 28] | 8 | 2 | – | – | –
29 | N#C[Se]Cc1nc2ccccc2nc1C[Se]C#N [compound 29] | 2 | 0 | – | – | –
30 | COc1cc2oc(=O)cc(C[Se]C#N)c2cc1OC [compound 30] | 4 | 1 | – | – | –
31 | N#C[Se]CC(=O)C12CC3CC(CC(C3)C1)C2 [compound 31] | 6 | 1 | – | – | –
32 | O=S(=O)(Nc1ccc([Se][Se]c2ccc(NS(=O)(=O)c3ccc(Br)cc3)cc2)cc1)c1ccc(Br)cc1 [compound 33] | 5 | 1 | – | – | –
33 | O=S(=O)(Nc1ccc([Se][Se]c2ccc(NS(=O)(=O)c3ccc(Cl)cc3)cc2)cc1)c1ccc(Cl)cc1 [compound 34] | 0 | 0 | – | – | –
34 | O=S(=O)(Nc1ccc([Se][Se]c2ccc(NS(=O)(=O)c3ccccc3Cl)cc2)cc1)c1ccccc1Cl [compound 35] | 2 | 0 | – | – | –
35 | O=S(=O)(Nc1ccc([Se][Se]c2ccc(NS(=O)(=O)c3ccc(F)cc3)cc2)cc1)c1ccc(F)cc1 [compound 36] | 6 | 1 | – | – | –
36 | O=S(=O)(Nc1ccc([Se][Se]c2ccc(NS(=O)(=O)c3ccccc3F)cc2)cc1)c1ccccc1F [compound 37] | 0 | 0 | – | – | –
37 | COc1ccc(S(=O)(=O)Nc2ccc([Se][Se]c3ccc(NS(=O)(=O)c4ccc(OC)cc4)cc3)cc2)cc1 [compound 38] | 1 | 0 | – | – | –
38 | O=[N+]([O-])c1ccc(S(=O)(=O)Nc2ccc([Se][Se]c3ccc(NS(=O)(=O)c4ccc([N+](=O)[O-])cc4)cc3)cc2)cc1 [compound 39] | 0 | 0 | – | – | –
39 | N#Cc1ccc(S(=O)(=O)Nc2ccc([Se][Se]c3ccc(NS(=O)(=O)c4ccc(C#N)cc4)cc3)cc2)cc1 [compound 40] | 4 | 1 | – | – | –
40 | O=S(=O)(Nc1ccc([Se][Se]c2ccc(NS(=O)(=O)c3ccccc3)cc2)cc1)c1ccccc1 [compound 41] | 4 | 1 | – | – | –
41 | O=S(=O)(Nc1ccc([Se][Se]c2ccc(NS(=O)(=O)c3ccc(C(F)(F)F)cc3)cc2)cc1)c1ccc(C(F)(F)F)cc1 [compound 42] | 6 | 1 | – | – | –
42 | O=S(=O)(Nc1ccc([Se][Se]c2ccc(NS(=O)(=O)c3ccc4ccccc4c3)cc2)cc1)c1ccc2ccccc2c1 [compound 44] | 6 | 1 | – | – | –
43 | O=S(=O)(Nc1ccc([Se][Se]c2ccc(NS(=O)(=O)c3cccc4cccnc34)cc2)cc1)c1cccc2cccnc12 [compound 45] | 8 | 2 | – | – | –
44 | O=S(=O)(Nc1ccc([Se][Se]c2ccc(NS(=O)(=O)c3cccs3)cc2)cc1)c1cccs1 [compound 48] | 9 | 2 | – | – | –
